# Assay results as given in the M2OR odorant receptor database.
# This is a selection; strong and weak results do not stand in their true shares. Calls are pooled over several reports, among them a noisy single-well screen. The list shows a part of the results.
# Assays:
# Conditions in all cases: stereoisomer not certain
# OR2C3 = test system: T1, OR2C3
# T1 sequence (whole entry): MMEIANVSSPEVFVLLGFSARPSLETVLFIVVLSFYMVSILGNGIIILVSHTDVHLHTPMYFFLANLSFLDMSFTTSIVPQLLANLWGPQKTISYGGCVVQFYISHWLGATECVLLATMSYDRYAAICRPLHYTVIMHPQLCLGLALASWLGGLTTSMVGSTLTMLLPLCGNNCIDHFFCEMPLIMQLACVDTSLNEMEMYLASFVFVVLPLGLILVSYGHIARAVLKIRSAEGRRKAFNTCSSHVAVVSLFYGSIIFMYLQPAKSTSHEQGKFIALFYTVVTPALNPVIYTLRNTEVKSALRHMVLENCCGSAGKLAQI
# Outline: (§1)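 Transient luciferase assays in mammalian cell lines were common, though methods varied by source. The values come from published papers and their supplementary material, with extra details from the original authors when needed. Responsive refers to a measured signal the original authors judged statistically different from baseline, and non-responsive (inactive) to the remainder.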
# OR2D2 (Homo sapiens) = target: T2, OR2D2 (Homo sapiens) (UniProt Q9H210)
# T2 sequence (whole entry): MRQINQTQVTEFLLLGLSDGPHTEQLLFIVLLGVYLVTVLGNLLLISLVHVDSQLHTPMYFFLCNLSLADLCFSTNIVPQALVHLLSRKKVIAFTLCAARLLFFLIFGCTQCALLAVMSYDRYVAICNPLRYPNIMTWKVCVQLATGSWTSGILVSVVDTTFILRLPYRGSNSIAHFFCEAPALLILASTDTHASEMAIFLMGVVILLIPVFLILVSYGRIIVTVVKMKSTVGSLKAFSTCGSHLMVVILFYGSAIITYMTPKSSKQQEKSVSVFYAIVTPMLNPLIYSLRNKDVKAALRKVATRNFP
# Outline: as §1
# OR2D3 = test system: T3, OR2D3
# T3 sequence (whole entry): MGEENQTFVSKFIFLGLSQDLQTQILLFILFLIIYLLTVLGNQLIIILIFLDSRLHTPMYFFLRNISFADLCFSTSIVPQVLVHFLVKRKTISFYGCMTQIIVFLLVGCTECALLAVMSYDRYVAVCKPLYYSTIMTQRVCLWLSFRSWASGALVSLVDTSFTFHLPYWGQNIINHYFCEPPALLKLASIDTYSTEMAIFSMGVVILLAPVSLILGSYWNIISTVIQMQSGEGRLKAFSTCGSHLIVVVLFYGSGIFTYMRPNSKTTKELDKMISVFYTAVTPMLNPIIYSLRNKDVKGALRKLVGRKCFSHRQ
# Outline: as §1
# OR2F1 (Homo sapiens) = target: T4, OR2F1 (Homo sapiens) (UniProt Q13607)
# T4 sequence (whole entry): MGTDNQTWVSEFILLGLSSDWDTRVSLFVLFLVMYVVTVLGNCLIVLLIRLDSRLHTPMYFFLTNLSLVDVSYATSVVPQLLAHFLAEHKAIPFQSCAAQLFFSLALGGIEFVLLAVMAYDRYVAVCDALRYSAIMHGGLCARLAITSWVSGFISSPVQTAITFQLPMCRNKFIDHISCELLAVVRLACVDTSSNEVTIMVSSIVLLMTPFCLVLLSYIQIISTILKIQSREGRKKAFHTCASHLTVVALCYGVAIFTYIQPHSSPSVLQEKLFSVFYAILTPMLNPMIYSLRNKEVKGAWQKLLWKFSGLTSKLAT
# Outline: as §1
# OR2F2 = test system: T5, OR2F2
# T5 sequence (whole entry): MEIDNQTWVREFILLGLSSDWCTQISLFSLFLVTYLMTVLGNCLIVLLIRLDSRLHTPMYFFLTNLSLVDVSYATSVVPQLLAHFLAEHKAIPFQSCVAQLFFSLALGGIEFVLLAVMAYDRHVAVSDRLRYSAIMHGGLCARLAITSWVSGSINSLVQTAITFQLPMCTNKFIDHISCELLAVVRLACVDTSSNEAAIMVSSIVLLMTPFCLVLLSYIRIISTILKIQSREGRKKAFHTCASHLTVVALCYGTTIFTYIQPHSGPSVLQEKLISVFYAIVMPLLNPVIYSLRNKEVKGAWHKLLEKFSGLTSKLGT
# Outline: as §1
# OR2G2 [1] = test system: T6, OR2G2
# T6 sequence (whole entry): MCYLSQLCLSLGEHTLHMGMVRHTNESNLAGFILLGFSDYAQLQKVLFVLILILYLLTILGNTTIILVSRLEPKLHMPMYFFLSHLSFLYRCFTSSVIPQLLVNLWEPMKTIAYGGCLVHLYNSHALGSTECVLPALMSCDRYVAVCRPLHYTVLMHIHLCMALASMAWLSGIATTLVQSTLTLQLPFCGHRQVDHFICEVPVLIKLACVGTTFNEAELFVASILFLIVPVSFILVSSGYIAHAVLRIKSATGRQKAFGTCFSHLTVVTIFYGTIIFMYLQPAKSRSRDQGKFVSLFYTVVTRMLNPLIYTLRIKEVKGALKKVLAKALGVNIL
# Outline: as §1
# OR2G2 [2] = test system: T7, OR2G2; remark: listed apart in the source
# T7 sequence (whole entry): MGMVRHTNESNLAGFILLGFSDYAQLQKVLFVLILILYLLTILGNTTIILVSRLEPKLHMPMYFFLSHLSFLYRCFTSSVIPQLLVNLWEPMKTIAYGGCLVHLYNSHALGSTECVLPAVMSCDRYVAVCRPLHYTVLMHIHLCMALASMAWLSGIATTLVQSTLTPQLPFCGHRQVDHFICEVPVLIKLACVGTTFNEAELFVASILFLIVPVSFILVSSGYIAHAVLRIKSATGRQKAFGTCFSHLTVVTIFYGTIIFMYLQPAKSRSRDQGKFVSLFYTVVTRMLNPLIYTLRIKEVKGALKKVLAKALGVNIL
# Outline: as §1
# OR2G3 (Homo sapiens) = target: T8, OR2G3 (Homo sapiens) (UniProt Q8NGZ4)
# T8 sequence (whole entry): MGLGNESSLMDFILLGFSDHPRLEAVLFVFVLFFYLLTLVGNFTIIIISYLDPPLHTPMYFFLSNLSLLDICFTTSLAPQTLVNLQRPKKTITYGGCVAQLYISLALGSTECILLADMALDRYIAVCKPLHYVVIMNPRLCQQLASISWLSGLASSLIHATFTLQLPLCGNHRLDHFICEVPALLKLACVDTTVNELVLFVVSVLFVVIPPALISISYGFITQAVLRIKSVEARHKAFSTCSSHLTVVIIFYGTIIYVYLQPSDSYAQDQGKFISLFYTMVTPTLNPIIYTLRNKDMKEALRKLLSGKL
# Outline: as §1
# OR2G3 = test system: T9, OR2G3
# T9 sequence (whole entry): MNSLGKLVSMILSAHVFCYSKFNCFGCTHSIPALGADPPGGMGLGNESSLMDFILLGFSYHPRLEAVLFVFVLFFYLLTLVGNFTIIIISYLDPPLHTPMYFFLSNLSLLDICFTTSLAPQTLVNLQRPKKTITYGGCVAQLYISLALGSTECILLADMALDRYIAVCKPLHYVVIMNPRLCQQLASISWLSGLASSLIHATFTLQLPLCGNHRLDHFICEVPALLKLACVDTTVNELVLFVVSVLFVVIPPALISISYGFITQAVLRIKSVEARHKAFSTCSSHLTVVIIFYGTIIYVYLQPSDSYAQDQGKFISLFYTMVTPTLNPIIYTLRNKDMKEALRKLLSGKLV
# Outline: as §1
# OR2G6 (Homo sapiens) = target: T10, OR2G6 (Homo sapiens) (UniProt Q5TZ20)
# T10 sequence (whole entry): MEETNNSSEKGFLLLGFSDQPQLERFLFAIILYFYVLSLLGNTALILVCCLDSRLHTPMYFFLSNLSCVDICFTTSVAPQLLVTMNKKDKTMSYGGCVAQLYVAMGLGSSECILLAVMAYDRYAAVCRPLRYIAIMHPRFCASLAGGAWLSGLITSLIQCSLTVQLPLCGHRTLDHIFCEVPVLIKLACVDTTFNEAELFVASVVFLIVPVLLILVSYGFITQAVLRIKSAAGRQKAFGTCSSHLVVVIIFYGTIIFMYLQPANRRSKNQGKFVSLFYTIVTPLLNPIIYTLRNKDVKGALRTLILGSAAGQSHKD
# Outline: as §1
# OR2H1 (Homo sapiens) = target: T11, OR2H1 (Homo sapiens) (UniProt Q9GZK4)
# T11 sequence (whole entry): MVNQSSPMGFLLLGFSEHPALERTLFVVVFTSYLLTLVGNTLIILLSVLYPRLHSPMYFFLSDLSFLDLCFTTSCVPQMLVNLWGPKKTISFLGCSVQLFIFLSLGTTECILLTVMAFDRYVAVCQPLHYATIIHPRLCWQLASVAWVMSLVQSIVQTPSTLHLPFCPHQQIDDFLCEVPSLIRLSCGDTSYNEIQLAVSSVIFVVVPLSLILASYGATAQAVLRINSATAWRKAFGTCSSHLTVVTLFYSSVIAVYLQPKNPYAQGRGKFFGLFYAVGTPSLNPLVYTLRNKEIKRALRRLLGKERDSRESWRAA
# Outline: as §1
# OR2H2 = test system: T12, OR2H2
# T12 sequence (whole entry): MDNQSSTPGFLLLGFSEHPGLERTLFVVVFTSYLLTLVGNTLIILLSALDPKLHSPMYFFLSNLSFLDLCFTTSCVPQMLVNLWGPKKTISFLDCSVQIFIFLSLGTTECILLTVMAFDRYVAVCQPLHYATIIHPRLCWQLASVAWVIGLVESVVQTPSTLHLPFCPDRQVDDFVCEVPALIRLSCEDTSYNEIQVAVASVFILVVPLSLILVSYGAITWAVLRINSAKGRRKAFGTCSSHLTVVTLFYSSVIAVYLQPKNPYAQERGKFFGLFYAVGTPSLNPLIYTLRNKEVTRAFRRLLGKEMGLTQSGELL
# Outline: as §1
# OR2H2 (Homo sapiens) = target: T13, OR2H2 (Homo sapiens) (UniProt O95918)
# T13 sequence (whole entry): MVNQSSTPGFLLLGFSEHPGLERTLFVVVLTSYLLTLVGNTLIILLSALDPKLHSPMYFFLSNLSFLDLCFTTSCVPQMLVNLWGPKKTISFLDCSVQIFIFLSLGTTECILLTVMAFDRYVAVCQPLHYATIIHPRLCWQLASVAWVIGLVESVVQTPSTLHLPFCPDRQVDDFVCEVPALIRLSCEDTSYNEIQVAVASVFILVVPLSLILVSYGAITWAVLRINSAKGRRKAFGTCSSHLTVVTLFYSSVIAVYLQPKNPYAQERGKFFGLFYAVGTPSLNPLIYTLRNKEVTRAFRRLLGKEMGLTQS
# Outline: as §1
# 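Note: active if original authors judged signal statistically different from baseline.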
Compound,odorant receptor agonist call (OR2C3),odorant receptor agonist call (OR2D2 (Homo sapiens)),odorant receptor agonist call (OR2D3),odorant receptor agonist call (OR2F1 (Homo sapiens)),odorant receptor agonist call (OR2F2),odorant receptor agonist call (OR2G2 [1]),odorant receptor agonist call (OR2G2 [2]),odorant receptor agonist call (OR2G3 (Homo sapiens)),odorant receptor agonist call (OR2G3),odorant receptor agonist call (OR2G6 (Homo sapiens)),odorant receptor agonist call (OR2H1 (Homo sapiens)),odorant receptor agonist call (OR2H2),odorant receptor agonist call (OR2H2 (Homo sapiens))
CCC1(O)C2(C)CCC(C2)C1(C)C (configuration not stated),inactive,inactive,inactive,inactive,inactive,inactive,inactive,inactive,inactive,inactive,inactive,inactive,–
c1cnccn1,inactive,inactive,inactive,inactive,inactive,inactive,inactive,inactive,inactive,inactive,inactive,inactive,–
CCCCCOC(C)=O,inactive,inactive,inactive,inactive,active,inactive,inactive,inactive,inactive,inactive,inactive,inactive,–
CC(C)C(=O)O,inactive,inactive,inactive,inactive,inactive,inactive,inactive,inactive,inactive,inactive,inactive,inactive,–
CC(C)CC(=O)O,inactive,inactive,inactive,inactive,inactive,inactive,inactive,inactive,inactive,inactive,inactive,inactive,–
CCCCCCCCC=O,–,–,–,–,–,–,–,–,–,–,–,–,active
CCC=CCCO,active,inactive,inactive,inactive,inactive,inactive,inactive,inactive,inactive,inactive,inactive,inactive,–
CC12C=CCC1C1CCC3=CC(=O)CCC3(C)C1CC2 (configuration not stated),inactive,inactive,inactive,active,active,inactive,inactive,inactive,inactive,inactive,inactive,active,–
CC12CCC(CC1)C(C)(C)O2,inactive,inactive,inactive,inactive,inactive,inactive,inactive,inactive,inactive,inactive,inactive,inactive,–
CC(=O)c1ccccc1,–,–,inactive,inactive,inactive,inactive,inactive,inactive,inactive,inactive,inactive,inactive,–
CC1=NC(C)SC1C (configuration not stated),–,–,inactive,inactive,inactive,inactive,inactive,inactive,active,inactive,inactive,inactive,–
CC(C)CCC(=O)O,inactive,inactive,inactive,inactive,inactive,inactive,inactive,inactive,inactive,inactive,inactive,inactive,–
COC(=O)c1ccccc1,–,–,inactive,inactive,inactive,inactive,inactive,inactive,inactive,inactive,inactive,inactive,–
CCCCCCC=O,–,–,–,–,–,–,–,–,–,–,–,–,active
CCCCCC(=O)O,inactive,inactive,inactive,inactive,inactive,inactive,inactive,inactive,inactive,inactive,inactive,inactive,–

# Single records, as listed above. Values in the order: odorant receptor agonist call (OR2C3) | odorant receptor agonist call (OR2D2 (Homo sapiens)) | odorant receptor agonist call (OR2D3) | odorant receptor agonist call (OR2F1 (Homo sapiens)) | odorant receptor agonist call (OR2F2) | odorant receptor agonist call (OR2G2 [1]) | odorant receptor agonist call (OR2G2 [2]) | odorant receptor agonist call (OR2G3 (Homo sapiens)) | odorant receptor agonist call (OR2G3) | odorant receptor agonist call (OR2G6 (Homo sapiens)) | odorant receptor agonist call (OR2H1 (Homo sapiens)) | odorant receptor agonist call (OR2H2) | odorant receptor agonist call (OR2H2 (Homo sapiens))
# CCCCCC(=O)O reads inactive | inactive | inactive | inactive | inactive | inactive | inactive | inactive | inactive | inactive | inactive | inactive | –
# CC(C)CCC(=O)O reads inactive | inactive | inactive | inactive | inactive | inactive | inactive | inactive | inactive | inactive | inactive | inactive | –
